From publication PMC13554221
No constants are given. Whether binding was seen depends on the method and setting. In cells and extracts the contact can be indirect. Where a sequence is shown, tags or fusion partners need not be part of it.

By UniProt entry, the sequences of proteins in these tests, tags left out.
UniProt Q9CQJ4: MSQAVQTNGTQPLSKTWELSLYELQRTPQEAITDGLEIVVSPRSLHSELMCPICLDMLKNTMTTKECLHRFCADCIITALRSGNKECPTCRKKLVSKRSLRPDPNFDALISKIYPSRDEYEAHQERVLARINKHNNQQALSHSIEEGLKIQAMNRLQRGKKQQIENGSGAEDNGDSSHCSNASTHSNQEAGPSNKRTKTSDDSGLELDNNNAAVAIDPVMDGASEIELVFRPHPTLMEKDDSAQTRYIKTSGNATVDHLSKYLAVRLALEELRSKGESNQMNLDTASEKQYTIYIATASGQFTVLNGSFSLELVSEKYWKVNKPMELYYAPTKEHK

Biological target: T1, CTCF-AID-EGFP (mouse (endogenous in ESCs)) (UniProt Q61164)
T1 sequence: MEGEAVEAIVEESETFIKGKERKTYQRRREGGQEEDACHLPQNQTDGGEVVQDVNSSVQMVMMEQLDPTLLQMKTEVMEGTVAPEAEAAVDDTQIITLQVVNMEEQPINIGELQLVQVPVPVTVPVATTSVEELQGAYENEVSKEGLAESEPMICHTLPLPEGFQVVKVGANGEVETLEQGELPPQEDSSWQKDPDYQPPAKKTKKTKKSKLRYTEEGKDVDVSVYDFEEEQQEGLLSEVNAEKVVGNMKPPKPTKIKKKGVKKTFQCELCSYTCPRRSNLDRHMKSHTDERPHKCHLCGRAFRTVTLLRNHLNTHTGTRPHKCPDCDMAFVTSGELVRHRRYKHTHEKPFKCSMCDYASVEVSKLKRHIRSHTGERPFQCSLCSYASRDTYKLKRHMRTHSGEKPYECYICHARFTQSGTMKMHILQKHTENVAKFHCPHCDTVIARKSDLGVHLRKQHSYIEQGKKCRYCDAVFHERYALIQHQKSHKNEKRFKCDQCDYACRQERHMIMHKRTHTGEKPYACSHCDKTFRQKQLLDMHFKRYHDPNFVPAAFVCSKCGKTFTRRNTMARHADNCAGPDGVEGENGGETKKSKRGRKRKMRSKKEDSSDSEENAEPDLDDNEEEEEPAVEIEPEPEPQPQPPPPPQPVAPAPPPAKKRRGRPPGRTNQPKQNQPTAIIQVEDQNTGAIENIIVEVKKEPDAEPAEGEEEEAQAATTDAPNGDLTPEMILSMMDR
Test: co-IP; CTCF antibody (10 µg) with whole-cell lysate of CTCF-AID-EGFP ESCs treated with IAA (auxin) or DMSO for 24 h; 2 h at 4 °C in Buffer A + Buffer BN, protein G beads overnight at 4 °C, five washes with Buffer BN (100 mM KCl, 0.1% IGEPAL), glycine elution; immunoblotting for CTCF and RING1B

Substance: Ring1b (from UniProt Q9CQJ4 1-336)
- binding: no binding
